PubChem BioAssay AID686943 – Drosophila RNAi Screening Center, 2013
The deposit covers about 23,000 reagents; this is a random part of those with a known target gene and a result. 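Extra replicates exist only for a retested subset of genes; insulin dose and duration not given; both raised and lowered dpERK matter.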 Reagents against one gene are numbered here. Names joined by + are all predicted targets of the reagent. Further read-outs or replicates are left out here. Not given: the amount of reagent, the time to read-out.

Screen: 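Knockdowns that increase or decrease active ERK after insulin receptor stimulation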 (primary screen)
Cell system: Drosophila S2R+ haemocyte-like cells expressing YFP-tagged ERK (Rolled)
Knock-down reagent: long dsRNA against Drosophila genes
Treatment: insulin stimulation versus unstimulated cells; dose and duration not given
Measurement: 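Antibody staining for doubly phosphorylated ERK divided by ERK-YFP signal, as plate z-scores, in insulin-treated and untreated cells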
Direction: replicate 1, z-score of dpERK with insulin and replicate 2, z-score of dpERK with insulin: higher = more active ERK per ERK-YFP after insulin

For Rbp #1, the values are replicate 1, z-score of dpERK with insulin -1.29; replicate 2, z-score of dpERK with insulin -3.87.
Rbp #2 scored replicate 1, z-score of dpERK with insulin 0.66; replicate 2, z-score of dpERK with insulin -0.46.
Knock-down of CG15522 came out at: replicate 1, z-score of dpERK with insulin -0.06; replicate 2, z-score of dpERK with insulin 0.02.
For Ir64a #1, the entry reads replicate 1, z-score of dpERK with insulin -0.41; replicate 2, z-score of dpERK with insulin -0.17.
With knock-down of Ir64a #2, the record shows replicate 1, z-score of dpERK with insulin 0.35; replicate 2, z-score of dpERK with insulin 0.38.
Depletion of CG7695 came out at: replicate 1, z-score of dpERK with insulin -0.24; replicate 2, z-score of dpERK with insulin -0.17.
After knock-down of nrv3, the record shows replicate 1, z-score of dpERK with insulin 0.17; replicate 2, z-score of dpERK with insulin 0.03.
Silencing of CG7990 #1 resulted in: replicate 1, z-score of dpERK with insulin -0.22; replicate 2, z-score of dpERK with insulin 0.37.
With knock-down of CG7990 #2, the record shows replicate 1, z-score of dpERK with insulin 0.38; replicate 2, z-score of dpERK with insulin 0.84.
Against He + NimB5 the deposit lists replicate 1, z-score of dpERK with insulin -0.6; replicate 2, z-score of dpERK with insulin 0.44.
Knock-down of Cyp6a13 gave: replicate 1, z-score of dpERK with insulin 0.14; replicate 2, z-score of dpERK with insulin -0.09.
After knock-down of Nuf2 the results were replicate 1, z-score of dpERK with insulin -0.76; replicate 2, z-score of dpERK with insulin 0.1.
BHD #1 gave replicate 1, z-score of dpERK with insulin -0.02; replicate 2, z-score of dpERK with insulin 0.28.
With knock-down of BHD #2, the record shows replicate 1, z-score of dpERK with insulin 0.29; replicate 2, z-score of dpERK with insulin 0.33.
Depletion of GstE2 resulted in: replicate 1, z-score of dpERK with insulin 0.12; replicate 2, z-score of dpERK with insulin -0.12.
rad (retired record) #1 scored replicate 1, z-score of dpERK with insulin -0.42; replicate 2, z-score of dpERK with insulin 0.67.
Depletion of rad (retired record) #2 gave: replicate 1, z-score of dpERK with insulin 1.73; replicate 2, z-score of dpERK with insulin 1.08.
rad (retired record) #3 scored replicate 1, z-score of dpERK with insulin -5.11; replicate 2, z-score of dpERK with insulin -4.9.
Depletion of rad (retired record) #4 gave: replicate 1, z-score of dpERK with insulin -0.08; replicate 2, z-score of dpERK with insulin 0.03.
CG8833 gave replicate 1, z-score of dpERK with insulin 0.56; replicate 2, z-score of dpERK with insulin 0.86.
Against CG14538 (retired record) the deposit lists replicate 1, z-score of dpERK with insulin 0.44; replicate 2, z-score of dpERK with insulin 0.37.
Knock-down of GlcAT-P #1 gave: replicate 1, z-score of dpERK with insulin 0.12; replicate 2, z-score of dpERK with insulin 1.02.
GlcAT-P #2 scored replicate 1, z-score of dpERK with insulin 3.72; replicate 2, z-score of dpERK with insulin 3.5.
With knock-down of GV1, the screen gave replicate 1, z-score of dpERK with insulin 1.29; replicate 2, z-score of dpERK with insulin 1.26.
Ack-like #1 scored replicate 1, z-score of dpERK with insulin -0.6; replicate 2, z-score of dpERK with insulin -0.21.
After knock-down of Ack-like #2, the record shows replicate 1, z-score of dpERK with insulin -0.43; replicate 2, z-score of dpERK with insulin -0.96.
Depletion of Alg-2 gave: replicate 1, z-score of dpERK with insulin -0.23; replicate 2, z-score of dpERK with insulin -0.56.
For fabp + sea #1, the values are replicate 1, z-score of dpERK with insulin -0.64; replicate 2, z-score of dpERK with insulin -0.54.
With knock-down of fabp + sea #2, the record shows replicate 1, z-score of dpERK with insulin -0.04; replicate 2, z-score of dpERK with insulin -1.38.
dpp #1 gave replicate 1, z-score of dpERK with insulin 2.6; replicate 2, z-score of dpERK with insulin 2.16.
dpp #2 scored replicate 1, z-score of dpERK with insulin 0.08; replicate 2, z-score of dpERK with insulin 0.83.
Against dpp #3, the entry reads replicate 1, z-score of dpERK with insulin -0.31; replicate 2, z-score of dpERK with insulin 0.16.
Against dpa the deposit lists replicate 1, z-score of dpERK with insulin 0.38; replicate 2, z-score of dpERK with insulin -0.09.
After knock-down of CG1503 the results were replicate 1, z-score of dpERK with insulin 0.01; replicate 2, z-score of dpERK with insulin -0.14.
Depletion of Arp53D gave: replicate 1, z-score of dpERK with insulin 0.02; replicate 2, z-score of dpERK with insulin -0.4.
With knock-down of CG13078, the record shows replicate 1, z-score of dpERK with insulin 1.28; replicate 2, z-score of dpERK with insulin 0.26.
Against Cpr78E, the values are replicate 1, z-score of dpERK with insulin 0.4; replicate 2, z-score of dpERK with insulin 0.62.
nAChRalpha2 showed replicate 1, z-score of dpERK with insulin -0.8; replicate 2, z-score of dpERK with insulin 0.78.
Knock-down of Snrk gave: replicate 1, z-score of dpERK with insulin 0.52; replicate 2, z-score of dpERK with insulin 0.77.
Rab10 scored replicate 1, z-score of dpERK with insulin -0.52; replicate 2, z-score of dpERK with insulin -0.19.

Individual results from above:
Value of fabp + sea #1 under “replicate 2, z-score of dpERK with insulin”: -0.54
nAChRalpha2, replicate 2, z-score of dpERK with insulin: 0.78
